Measurements reported in PubChem BioAssay AID1259308 (NCATS, 2017).
The whole screen tested about 59,000 reagents; shown is a random part of them. About 1,510 of them (2.6%) were called active. 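Calls use total luciferase alone and ignore viability, so some active siRNAs may act by altering cell number.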 Entries without a mark were called inactive. The numbers tell different reagents against one gene apart. Further read-outs or replicates are left out here.

- Test: 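Genes whose loss raises luciferase production in HEK293 cells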 (primary screen)
- Cell system: human HEK293 embryonic kidney cells stably expressing firefly luciferase (HEK-CMV-Luc2-Hygro)
- Reagents: single siRNA against human genes, 0.8 pmol siRNA per well
- Duration: 72 h
- Detection: 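Reporter luminescence and viable-cell signal on separate replicate plates, given as percent of non-targeting control and median/MAD z-scores, plus per-cell luciferase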
- Reading the numbers: total luciferase, z-score and total luciferase, % of control: higher = more reporter protein produced; luciferase per cell, z-score: higher = more reporter output per viable cell
- Rule for the call: 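An siRNA counts as active if its total luciferase robust z-score exceeds 3; genes with two or more such siRNAs out of three were retested with fresh siRNAs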
- Meaning of the calls: active = raised luciferase; inactive = no rise

gene | siRNA no. | total luciferase, z-score | total luciferase, % of control | luciferase per cell, z-score
DEFB116 (defensin beta 116) | 1 | -1.23 | 57.5 | -0.49
DEFB116 (defensin beta 116) | 2 | 2.41 | 130 | 1.7
DEFB116 (defensin beta 116) | 3 | 1.1 | 104 | 1.51
TAF1L (TATA-box binding protein associated factor 1 like) | 1 | 0.485 | 91.5 | 0.975
TAF1L (TATA-box binding protein associated factor 1 like) | 2 | 0.18 | 85.5 | -0.204
TAF1L (TATA-box binding protein associated factor 1 like) | 3 | -0.657 | 68.8 | -0.718
HMGN2P24 | 1 | -0.964 | 62.7 | -0.332
HMGN2P24 | 2 | 3.52 (active) | 152 | 1.89
HMGN2P24 | 3 | -1.25 | 56.9 | -1.42
SELENON (selenoprotein N) | 1 | -0.324 | 75.4 | -0.938
SELENON (selenoprotein N) | 2 | 0.638 | 94.6 | -0.119
SELENON (selenoprotein N) | 3 | 0.259 | 87 | -0.0675
H2BC9 (H2B clustered histone 9) | 1 | 2.33 | 128 | 2.21
H2BC9 (H2B clustered histone 9) | 2 | -0.746 | 67 | -0.139
H2BC9 (H2B clustered histone 9) | 3 | -0.688 | 68.2 | -0.665
TYROBP (transmembrane immune signaling adaptor TYROBP) | 1 | 0.25 | 86.9 | 0.893
TYROBP (transmembrane immune signaling adaptor TYROBP) | 2 | -0.919 | 63.6 | 0.153
TYROBP (transmembrane immune signaling adaptor TYROBP) | 3 | 0.0667 | 83.2 | 0.239
ZSCAN4 (zinc finger and SCAN domain containing 4) | 1 | -0.97 | 62.6 | -1.16
ZSCAN4 (zinc finger and SCAN domain containing 4) | 2 | 0.363 | 89.1 | 0.548
ZSCAN4 (zinc finger and SCAN domain containing 4) | 3 | 3.54 (active) | 152 | 3.67
VPS53 (VPS53 subunit of GARP complex) | 1 | -0.356 | 74.8 | -0.43
VPS53 (VPS53 subunit of GARP complex) | 2 | 0.209 | 86 | -0.34
VPS53 (VPS53 subunit of GARP complex) | 3 | 0.755 | 96.9 | 0.512
HCAR3 (hydroxycarboxylic acid receptor 3) | 1 | 1.82 | 118 | 1.76
HCAR3 (hydroxycarboxylic acid receptor 3) | 2 | 1.62 | 114 | 2.18
HCAR3 (hydroxycarboxylic acid receptor 3) | 3 | 1.34 | 108 | 1.06
H1-8 (H1.8 linker histone) | 1 | 0.0995 | 83.9 | 0.674
H1-8 (H1.8 linker histone) | 2 | 2.46 | 131 | 2.3
H1-8 (H1.8 linker histone) | 3 | -2.33 | 35.5 | -2.43
MPG (N-methylpurine DNA glycosylase) | 1 | 0.0563 | 83 | -0.746
MPG (N-methylpurine DNA glycosylase) | 2 | 0.996 | 102 | 0.765
MPG (N-methylpurine DNA glycosylase) | 3 | 2.43 | 130 | 1.9
ALX3 (ALX homeobox 3) | 1 | -1.1 | 60 | -1.5
ALX3 (ALX homeobox 3) | 2 | -0.101 | 79.9 | -0.184
ALX3 (ALX homeobox 3) | 3 | 2.53 | 132 | 2.32
GPR34 (G protein-coupled receptor 34) | 1 | -0.236 | 77.2 | -0.282
GPR34 (G protein-coupled receptor 34) | 2 | -1.44 | 53.3 | -1.54
GPR34 (G protein-coupled receptor 34) | 3 | -1.8 | 46.1 | -1.73
CRTC2 (CREB regulated transcription coactivator 2) | 1 | 1.72 | 116 | 1.75
CRTC2 (CREB regulated transcription coactivator 2) | 2 | -1.29 | 56.2 | -0.904
CRTC2 (CREB regulated transcription coactivator 2) | 3 | 0.624 | 94.3 | 1.11
WDR55 (WD repeat domain 55) | 1 | 2.08 | 123 | 1.07
WDR55 (WD repeat domain 55) | 2 | -1.57 | 50.6 | -1.95
WDR55 (WD repeat domain 55) | 3 | 0.162 | 85.1 | -0.431

11 successive reagents already listed, quoted:
gene | siRNA no. | total luciferase, z-score | total luciferase, % of control | luciferase per cell, z-score
TYROBP (transmembrane immune signaling adaptor TYROBP) | 2 | -0.919 | 63.6 | 0.153
TYROBP (transmembrane immune signaling adaptor TYROBP) | 3 | 0.0667 | 83.2 | 0.239
ZSCAN4 (zinc finger and SCAN domain containing 4) | 1 | -0.97 | 62.6 | -1.16
ZSCAN4 (zinc finger and SCAN domain containing 4) | 2 | 0.363 | 89.1 | 0.548
ZSCAN4 (zinc finger and SCAN domain containing 4) | 3 | 3.54 (active) | 152 | 3.67
VPS53 (VPS53 subunit of GARP complex) | 1 | -0.356 | 74.8 | -0.43
VPS53 (VPS53 subunit of GARP complex) | 2 | 0.209 | 86 | -0.34
VPS53 (VPS53 subunit of GARP complex) | 3 | 0.755 | 96.9 | 0.512
HCAR3 (hydroxycarboxylic acid receptor 3) | 1 | 1.82 | 118 | 1.76
HCAR3 (hydroxycarboxylic acid receptor 3) | 2 | 1.62 | 114 | 2.18
HCAR3 (hydroxycarboxylic acid receptor 3) | 3 | 1.34 | 108 | 1.06

Additional reagents follow.
gene | siRNA no. | total luciferase, z-score | total luciferase, % of control | luciferase per cell, z-score
C1QL1 (complement C1q like 1) | 1 | -0.248 | 77 | 0.185
C1QL1 (complement C1q like 1) | 2 | 0.133 | 84.5 | 0.107
C1QL1 (complement C1q like 1) | 3 | 3.46 (active) | 151 | 2.24
ATP6V1H (ATPase H+ transporting V1 subunit H) | 1 | -0.481 | 72.3 | -1.12
ATP6V1H (ATPase H+ transporting V1 subunit H) | 2 | 0.578 | 93.4 | 0.303
ATP6V1H (ATPase H+ transporting V1 subunit H) | 3 | -1.12 | 59.7 | -1.44
LOC727978 (retired record) | 1 | -0.324 | 75.4 | -1.22
LOC727978 (retired record) | 2 | 0.0761 | 83.4 | 0.524
LOC727978 (retired record) | 3 | 0.338 | 88.6 | 0.656
EVL (Enah/Vasp-like) | 1 | 2.76 | 137 | 2.28
EVL (Enah/Vasp-like) | 2 | 0.279 | 87.4 | 0.836
EVL (Enah/Vasp-like) | 3 | 0.757 | 96.9 | 1.17
BBS4 (Bardet-Biedl syndrome 4) | 1 | -0.455 | 72.8 | -0.517
BBS4 (Bardet-Biedl syndrome 4) | 2 | 1.14 | 105 | 0.525
BBS4 (Bardet-Biedl syndrome 4) | 3 | 1.21 | 106 | 0.518
WRN (WRN RecQ like helicase) | 1 | 0.245 | 86.8 | 0.411
WRN (WRN RecQ like helicase) | 2 | -0.477 | 72.4 | 0.0557
WRN (WRN RecQ like helicase) | 3 | 1.12 | 104 | 0.752
FCRL5 (Fc receptor like 5) | 1 | -2.89 | 24.3 | -2.47
FCRL5 (Fc receptor like 5) | 2 | 0.605 | 93.9 | 0.143
FCRL5 (Fc receptor like 5) | 3 | -2.04 | 41.3 | -2.47
CRNKL1 (crooked neck pre-mRNA splicing factor 1) | 1 | -0.539 | 71.2 | 1.99
CRNKL1 (crooked neck pre-mRNA splicing factor 1) | 2 | 1.09 | 104 | 2.59
CRNKL1 (crooked neck pre-mRNA splicing factor 1) | 3 | 0.173 | 85.3 | 1.65
SPACA7 (sperm acrosome associated 7) | 1 | -0.671 | 68.5 | -0.83
SPACA7 (sperm acrosome associated 7) | 2 | 2.13 | 124 | 1.82
SPACA7 (sperm acrosome associated 7) | 3 | 1.25 | 107 | 1.1
KHDC3L | 1 | 0.0879 | 83.6 | 0.158
KHDC3L | 2 | -0.457 | 72.8 | -0.505
KHDC3L | 3 | 0.9 | 99.8 | 1.82
